Binding data for one substance are collected here from patent US20160237419A1.

By UniProt entry, the sequences of proteins in these tests, tags left out. Where a name states a change or a piece, a line headed by the entry shows the natural chain unless it says otherwise. Residues count along the entry.
UniProt P23827, residues 21-162: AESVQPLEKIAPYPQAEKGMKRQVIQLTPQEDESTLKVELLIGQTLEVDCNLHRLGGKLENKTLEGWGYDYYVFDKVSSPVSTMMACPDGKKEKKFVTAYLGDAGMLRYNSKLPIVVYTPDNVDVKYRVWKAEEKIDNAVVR
UniProt P07477: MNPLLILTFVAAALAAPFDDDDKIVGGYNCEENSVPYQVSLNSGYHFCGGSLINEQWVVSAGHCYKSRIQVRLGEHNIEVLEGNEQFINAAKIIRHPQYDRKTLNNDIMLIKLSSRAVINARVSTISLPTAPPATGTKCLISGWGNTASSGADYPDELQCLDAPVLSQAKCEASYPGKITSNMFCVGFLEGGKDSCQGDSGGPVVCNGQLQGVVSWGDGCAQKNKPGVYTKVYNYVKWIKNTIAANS

The assay concerns the target ecotin (UniProt P23827). As to the kind of experiment: affinity chromatography on immobilised ecotin.

These are yes or no findings as the source states them, for the method shown. Some entries that bind do so weakly or less than the wild type.

With “supercharged variant of human trypsinogen-1 (PRSS1 sc) (from UniProt P07477 18-247) (enzyme)”, the binding result is “binds”.
